Data: the supplement of paper PMC12595434, “Development of retinoid nuclear receptor pathway antagonists through targeting aldehyde dehydrogenase 1A3” (iScience, 2025)
The other results are listed elsewhere or left out. Single values of this set are uncertain.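 Many melting curves are irregular; where none melted, Tm was taken as 64 °C.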

Amino acid sequences for entries named in this document (tags omitted). A change or cut given only in a name is not applied to a line headed by its entry.
UniProt P98179: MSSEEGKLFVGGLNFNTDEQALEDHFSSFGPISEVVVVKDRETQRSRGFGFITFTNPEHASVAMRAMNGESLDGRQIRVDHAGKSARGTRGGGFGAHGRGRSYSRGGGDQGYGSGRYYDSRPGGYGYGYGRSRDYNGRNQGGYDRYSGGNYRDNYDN
UniProt Q12857, whole entry: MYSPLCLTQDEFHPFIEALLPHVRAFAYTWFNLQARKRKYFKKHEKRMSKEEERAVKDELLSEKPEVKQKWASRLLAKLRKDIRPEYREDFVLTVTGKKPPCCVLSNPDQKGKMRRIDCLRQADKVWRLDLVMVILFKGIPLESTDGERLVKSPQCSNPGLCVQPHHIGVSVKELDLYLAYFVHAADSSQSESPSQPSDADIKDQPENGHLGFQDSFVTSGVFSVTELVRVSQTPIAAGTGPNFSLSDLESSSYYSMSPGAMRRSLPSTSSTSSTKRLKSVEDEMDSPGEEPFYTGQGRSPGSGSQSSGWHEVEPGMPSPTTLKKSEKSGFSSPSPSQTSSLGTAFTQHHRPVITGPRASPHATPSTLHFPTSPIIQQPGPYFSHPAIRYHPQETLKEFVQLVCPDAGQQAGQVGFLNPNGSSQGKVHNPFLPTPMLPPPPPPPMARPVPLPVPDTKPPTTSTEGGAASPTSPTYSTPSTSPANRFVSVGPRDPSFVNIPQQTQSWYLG
UniProt P83876: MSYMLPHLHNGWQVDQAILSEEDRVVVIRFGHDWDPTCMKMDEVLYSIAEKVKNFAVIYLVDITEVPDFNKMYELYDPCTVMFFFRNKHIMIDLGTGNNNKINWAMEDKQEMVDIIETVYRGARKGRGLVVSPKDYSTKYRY
UniProt Q04323: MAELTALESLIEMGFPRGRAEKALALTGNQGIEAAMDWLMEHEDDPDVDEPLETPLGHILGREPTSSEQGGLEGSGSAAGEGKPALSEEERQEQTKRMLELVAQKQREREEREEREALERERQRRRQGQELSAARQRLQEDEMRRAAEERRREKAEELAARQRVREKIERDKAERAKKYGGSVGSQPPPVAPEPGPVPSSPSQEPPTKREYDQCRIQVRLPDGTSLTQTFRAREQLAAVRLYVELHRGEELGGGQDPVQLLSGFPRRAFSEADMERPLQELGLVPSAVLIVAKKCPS
UniProt Q07065: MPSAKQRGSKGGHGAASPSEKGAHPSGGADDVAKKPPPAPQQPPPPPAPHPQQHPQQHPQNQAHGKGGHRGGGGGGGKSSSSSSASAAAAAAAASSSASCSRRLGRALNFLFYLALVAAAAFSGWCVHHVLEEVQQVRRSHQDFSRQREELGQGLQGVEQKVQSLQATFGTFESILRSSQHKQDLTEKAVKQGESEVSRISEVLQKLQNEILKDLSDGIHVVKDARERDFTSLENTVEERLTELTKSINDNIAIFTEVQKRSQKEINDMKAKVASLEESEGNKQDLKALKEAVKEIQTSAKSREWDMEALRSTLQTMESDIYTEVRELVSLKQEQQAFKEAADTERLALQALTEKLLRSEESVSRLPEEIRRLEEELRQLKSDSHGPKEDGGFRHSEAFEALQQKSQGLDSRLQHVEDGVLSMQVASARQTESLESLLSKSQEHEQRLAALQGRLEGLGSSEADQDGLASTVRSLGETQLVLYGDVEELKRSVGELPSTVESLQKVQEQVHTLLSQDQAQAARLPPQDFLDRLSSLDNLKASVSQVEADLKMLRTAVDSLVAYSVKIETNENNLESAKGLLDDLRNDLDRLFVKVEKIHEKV
UniProt Q0PNE2: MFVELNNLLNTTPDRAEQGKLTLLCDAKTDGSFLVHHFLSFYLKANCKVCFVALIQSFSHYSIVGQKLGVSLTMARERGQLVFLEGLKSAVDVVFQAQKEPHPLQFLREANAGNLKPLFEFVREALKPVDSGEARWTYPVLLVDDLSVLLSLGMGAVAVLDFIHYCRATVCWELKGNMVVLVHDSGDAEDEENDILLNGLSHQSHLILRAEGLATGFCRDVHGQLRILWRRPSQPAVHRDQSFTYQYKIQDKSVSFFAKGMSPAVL
UniProt Q01415: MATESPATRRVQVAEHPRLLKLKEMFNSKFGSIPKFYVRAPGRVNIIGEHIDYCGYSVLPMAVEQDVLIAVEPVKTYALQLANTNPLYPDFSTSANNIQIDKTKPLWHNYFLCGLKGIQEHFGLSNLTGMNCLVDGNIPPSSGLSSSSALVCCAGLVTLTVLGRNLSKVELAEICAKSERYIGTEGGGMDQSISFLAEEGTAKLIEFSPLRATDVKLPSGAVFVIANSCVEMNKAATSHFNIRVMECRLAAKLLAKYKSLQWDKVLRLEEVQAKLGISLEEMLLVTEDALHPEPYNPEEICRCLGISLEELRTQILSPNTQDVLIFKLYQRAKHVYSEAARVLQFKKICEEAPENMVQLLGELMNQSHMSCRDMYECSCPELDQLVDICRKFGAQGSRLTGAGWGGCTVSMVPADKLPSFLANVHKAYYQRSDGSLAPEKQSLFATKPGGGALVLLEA
UniProt Q12899: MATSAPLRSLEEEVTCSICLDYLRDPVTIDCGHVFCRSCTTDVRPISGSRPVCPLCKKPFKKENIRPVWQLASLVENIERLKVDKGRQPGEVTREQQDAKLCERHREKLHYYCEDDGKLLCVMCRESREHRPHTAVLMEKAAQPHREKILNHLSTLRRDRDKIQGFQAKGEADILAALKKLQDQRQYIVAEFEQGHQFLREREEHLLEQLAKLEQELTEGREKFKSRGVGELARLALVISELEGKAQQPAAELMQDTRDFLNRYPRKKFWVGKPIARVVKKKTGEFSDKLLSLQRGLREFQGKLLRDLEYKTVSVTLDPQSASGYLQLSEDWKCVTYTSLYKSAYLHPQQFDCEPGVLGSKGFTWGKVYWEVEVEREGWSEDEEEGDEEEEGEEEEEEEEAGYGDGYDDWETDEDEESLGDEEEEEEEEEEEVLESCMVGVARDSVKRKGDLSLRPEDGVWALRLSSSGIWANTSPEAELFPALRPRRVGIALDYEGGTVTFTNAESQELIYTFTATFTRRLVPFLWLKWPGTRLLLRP
UniProt Q04637, whole entry: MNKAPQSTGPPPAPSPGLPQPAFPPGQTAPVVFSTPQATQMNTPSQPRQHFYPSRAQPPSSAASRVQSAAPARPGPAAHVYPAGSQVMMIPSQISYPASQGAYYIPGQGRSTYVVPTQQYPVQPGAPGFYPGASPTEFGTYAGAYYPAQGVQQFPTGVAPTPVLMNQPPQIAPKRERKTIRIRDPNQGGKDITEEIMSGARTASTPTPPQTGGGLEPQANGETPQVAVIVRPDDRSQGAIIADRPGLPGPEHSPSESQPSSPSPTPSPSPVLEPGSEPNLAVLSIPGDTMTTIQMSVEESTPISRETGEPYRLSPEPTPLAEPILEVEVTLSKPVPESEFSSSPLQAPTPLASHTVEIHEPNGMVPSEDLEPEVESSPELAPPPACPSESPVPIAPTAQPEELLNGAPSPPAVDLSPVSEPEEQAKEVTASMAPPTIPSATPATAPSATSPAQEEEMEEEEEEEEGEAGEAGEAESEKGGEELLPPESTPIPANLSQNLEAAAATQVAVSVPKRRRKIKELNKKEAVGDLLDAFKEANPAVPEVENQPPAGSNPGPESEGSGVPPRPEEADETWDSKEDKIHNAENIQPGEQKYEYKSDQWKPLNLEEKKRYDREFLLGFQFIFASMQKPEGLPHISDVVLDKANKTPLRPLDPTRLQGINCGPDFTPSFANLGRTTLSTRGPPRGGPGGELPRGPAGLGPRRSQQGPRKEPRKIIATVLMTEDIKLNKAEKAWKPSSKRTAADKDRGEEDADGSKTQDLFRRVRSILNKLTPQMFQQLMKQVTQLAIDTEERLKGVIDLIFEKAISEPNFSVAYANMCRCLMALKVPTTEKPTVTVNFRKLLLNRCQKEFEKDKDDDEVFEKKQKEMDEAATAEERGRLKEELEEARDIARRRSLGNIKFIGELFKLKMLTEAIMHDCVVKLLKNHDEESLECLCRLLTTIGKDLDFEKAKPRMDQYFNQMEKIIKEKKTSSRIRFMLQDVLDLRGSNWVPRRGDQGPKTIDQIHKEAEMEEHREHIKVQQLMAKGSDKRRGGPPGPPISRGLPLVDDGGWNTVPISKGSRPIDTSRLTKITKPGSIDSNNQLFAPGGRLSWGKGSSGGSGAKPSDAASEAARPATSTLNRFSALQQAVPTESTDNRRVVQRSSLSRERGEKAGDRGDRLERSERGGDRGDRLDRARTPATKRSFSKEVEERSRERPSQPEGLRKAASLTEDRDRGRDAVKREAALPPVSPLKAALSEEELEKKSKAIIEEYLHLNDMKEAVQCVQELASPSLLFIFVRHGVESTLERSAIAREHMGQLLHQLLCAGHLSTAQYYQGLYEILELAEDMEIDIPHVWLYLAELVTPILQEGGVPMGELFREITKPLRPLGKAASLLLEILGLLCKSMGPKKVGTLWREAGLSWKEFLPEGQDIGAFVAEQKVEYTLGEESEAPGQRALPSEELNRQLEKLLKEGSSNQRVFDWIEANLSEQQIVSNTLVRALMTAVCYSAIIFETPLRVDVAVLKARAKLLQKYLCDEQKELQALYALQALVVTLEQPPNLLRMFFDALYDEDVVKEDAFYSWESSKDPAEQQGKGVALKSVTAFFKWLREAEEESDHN
UniProt Q05823: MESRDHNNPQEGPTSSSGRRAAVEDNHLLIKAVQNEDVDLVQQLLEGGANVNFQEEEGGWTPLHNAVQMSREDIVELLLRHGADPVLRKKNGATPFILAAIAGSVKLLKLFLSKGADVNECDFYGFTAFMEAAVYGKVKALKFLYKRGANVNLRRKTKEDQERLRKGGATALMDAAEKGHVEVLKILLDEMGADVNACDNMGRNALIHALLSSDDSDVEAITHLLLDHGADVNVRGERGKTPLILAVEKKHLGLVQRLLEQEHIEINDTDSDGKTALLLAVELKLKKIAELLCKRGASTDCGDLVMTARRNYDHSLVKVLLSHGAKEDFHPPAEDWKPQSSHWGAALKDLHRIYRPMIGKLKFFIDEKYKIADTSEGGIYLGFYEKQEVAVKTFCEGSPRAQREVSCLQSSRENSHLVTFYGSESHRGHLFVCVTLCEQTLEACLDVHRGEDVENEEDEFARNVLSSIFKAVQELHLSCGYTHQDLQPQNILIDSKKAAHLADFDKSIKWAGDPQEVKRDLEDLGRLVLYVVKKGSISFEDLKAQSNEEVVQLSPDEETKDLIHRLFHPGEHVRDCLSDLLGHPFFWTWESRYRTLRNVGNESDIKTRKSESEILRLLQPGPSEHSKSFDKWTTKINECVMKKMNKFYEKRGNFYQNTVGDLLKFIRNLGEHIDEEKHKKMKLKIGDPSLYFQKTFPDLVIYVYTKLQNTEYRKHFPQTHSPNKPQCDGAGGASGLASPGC
UniProt Q05048: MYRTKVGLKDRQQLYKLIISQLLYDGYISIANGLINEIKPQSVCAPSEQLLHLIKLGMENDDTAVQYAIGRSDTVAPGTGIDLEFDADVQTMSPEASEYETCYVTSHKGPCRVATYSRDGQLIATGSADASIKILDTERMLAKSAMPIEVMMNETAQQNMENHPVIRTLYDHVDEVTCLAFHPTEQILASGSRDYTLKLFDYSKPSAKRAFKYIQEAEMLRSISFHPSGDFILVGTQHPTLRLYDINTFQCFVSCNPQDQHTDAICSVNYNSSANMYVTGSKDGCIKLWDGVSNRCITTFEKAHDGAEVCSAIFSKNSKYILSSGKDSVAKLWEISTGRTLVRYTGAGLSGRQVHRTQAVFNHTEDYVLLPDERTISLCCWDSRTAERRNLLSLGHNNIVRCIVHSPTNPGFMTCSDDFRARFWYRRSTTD
UniProt P80404: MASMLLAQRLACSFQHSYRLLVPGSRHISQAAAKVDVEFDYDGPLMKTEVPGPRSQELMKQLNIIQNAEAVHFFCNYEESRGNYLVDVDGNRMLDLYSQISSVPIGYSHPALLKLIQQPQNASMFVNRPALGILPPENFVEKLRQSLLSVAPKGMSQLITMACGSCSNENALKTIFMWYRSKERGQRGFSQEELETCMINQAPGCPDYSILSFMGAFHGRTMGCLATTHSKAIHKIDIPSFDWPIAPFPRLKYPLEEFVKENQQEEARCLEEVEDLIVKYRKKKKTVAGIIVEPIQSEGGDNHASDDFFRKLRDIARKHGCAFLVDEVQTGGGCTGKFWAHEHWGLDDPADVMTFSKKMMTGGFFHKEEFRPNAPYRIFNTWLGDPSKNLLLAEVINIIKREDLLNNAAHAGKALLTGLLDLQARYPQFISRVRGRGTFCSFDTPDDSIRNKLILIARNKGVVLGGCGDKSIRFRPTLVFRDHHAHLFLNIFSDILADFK
UniProt Q00169: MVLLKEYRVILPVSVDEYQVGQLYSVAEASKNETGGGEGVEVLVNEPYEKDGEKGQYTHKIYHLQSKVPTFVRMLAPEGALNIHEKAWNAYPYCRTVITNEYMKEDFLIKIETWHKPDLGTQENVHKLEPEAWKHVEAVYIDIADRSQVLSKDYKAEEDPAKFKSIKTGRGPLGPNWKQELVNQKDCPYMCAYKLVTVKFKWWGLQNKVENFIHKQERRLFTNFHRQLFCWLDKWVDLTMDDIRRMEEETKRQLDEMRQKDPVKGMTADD

What follows are targets tested with CCc1cnccc1C(=O)Nc1cc2c(cc1F)NC(=O)CC2 (assay: melting temperature shift (DMSO Tm minus MBE1-treated Tm) in cellular thermal proteome profiling; higher = less thermal stabilization by MBE1 (negative = stabilized by MBE1)). Settings: A375; MBE1 concentration: 100 nM.
With RBM3 (UniProt P98179) the melting temperature shift was -1.5 °C. Work on NFIA (UniProt Q12857) yielded a melting temperature shift of 0 °C. Target TXNL4A (UniProt P83876) has a melting temperature shift of 0 °C. NOTCH2 (UniProt Q04721) gave a melting temperature shift of -1.14 °C. With UniProt Q11201 the melting temperature shift was -1.13 °C. Work on UniProt Q02156 yielded a melting temperature shift of -3.47 °C. UBXN1 (UniProt Q04323) was tested, and the melting temperature shift was 0.782 °C. With CKAP4 (UniProt Q07065) the melting temperature shift was -1.16 °C. Work on UniProt Q06190 yielded a melting temperature shift of 1.64 °C. TOP2B (UniProt Q02880) was tested, and the melting temperature shift was 0.415 °C. With ELP6 (UniProt Q0PNE2) the melting temperature shift was -2.61 °C. GALK2 (UniProt Q01415) gave a melting temperature shift of -0.256 °C. In the case of TRIM26 (UniProt Q12899), the melting temperature shift is reported as -2.81 °C. In the case of MRPS11 (UniProt P82912), the melting temperature shift is reported as -1.94 °C. Target EIF4G1 (UniProt Q04637) has a melting temperature shift of -0.79 °C. With RNASEL (UniProt Q05823) the melting temperature shift was -1.01 °C. CSTF1 (UniProt Q05048) gave a melting temperature shift of -2.03 °C. YWHAH (UniProt Q04917) showed a melting temperature shift of -0.583 °C. Target UniProt P80404 has a melting temperature shift of -1.83 °C. CPSF1 (UniProt Q10570) was tested, and the melting temperature shift was 0.379 °C. Work on LRP1 (UniProt Q07954) yielded a melting temperature shift of -0.989 °C. PITPNA (UniProt Q00169) was tested, and the melting temperature shift was -1.27 °C. FAAP100 (UniProt Q0VG06) gave a melting temperature shift of 1.06 °C. For MRPS5 (UniProt P82675), the melting temperature shift was 2.18 °C. In the case of UniProt P84074, the melting temperature shift is reported as -1.3 °C. FOXK2 (UniProt Q01167) was tested, and the melting temperature shift was -0.916 °C. MRPS25 (UniProt P82663) was tested, and the melting temperature shift was -1.18 °C. NUP160 (UniProt Q12769) was tested, and the melting temperature shift was 0.763 °C.
